Experimental data reported in paper PMC8316464.
These are yes or no findings as the source states them, for the method shown. For some assays here: Where a sequence is shown, tags or fusion partners need not be part of it.

T1: Bcl-w (human) (UniProt Q92843)
T1 sequence: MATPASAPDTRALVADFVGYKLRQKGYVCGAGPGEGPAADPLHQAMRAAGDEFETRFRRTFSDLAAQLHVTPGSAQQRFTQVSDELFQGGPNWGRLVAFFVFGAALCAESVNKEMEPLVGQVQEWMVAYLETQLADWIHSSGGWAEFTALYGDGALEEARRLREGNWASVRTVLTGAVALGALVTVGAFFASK

T2: Bfl-1 (human) (UniProt Q16548)
T2 sequence: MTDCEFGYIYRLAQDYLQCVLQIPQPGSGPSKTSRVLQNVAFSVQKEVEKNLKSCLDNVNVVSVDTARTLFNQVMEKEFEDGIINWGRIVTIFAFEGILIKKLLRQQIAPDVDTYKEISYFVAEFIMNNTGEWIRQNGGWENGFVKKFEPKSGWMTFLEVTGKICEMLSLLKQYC


Experiments:
Bcl-w (human) = molecular target: T1, Bcl-w (human); assay: SPR; Biacore S200; Bcl-2 family proteins immobilised on CM5 (amine coupling or His-Capture Kit); peptides and flag-tagged proteins as analytes, single-cycle kinetics, HBS-EP, 25 °C; 1:1 Langmuir model; absence of binding probed at 100 nM and 3 µM; both purified
Bfl-1 (human) = molecular target: T2, Bfl-1 (human); assay: as above
[1] = molecular target: flag-tagged ApoL1-NTD (D61–T172) (human) (UniProt O14791); assay: SEC-MALS; XBridge BEH 200 Å column in PBS, 0.02% sodium azide, 1 ml/min; complex formed with a twofold molar excess of ApoL1-NTD (46.8 µM) over Fab7D6, 30 min at room temperature; components also run alone; both purified
[2] = molecular target: ApoL1-NTD cleaved between L88 and T89 during crystallization (protomer in the Fab7D6:ApoL1-NTD crystal) (human) (UniProt O14791); assay: crystal structure; Fab complexes formed with 1.5 molar excess of NTD and purified on Superdex-200 in 0.15 M NaCl, 25 mM Tris pH 8.0, about 10 mg/ml; Fab7D6 also crystallised with the synthetic peptide E152–H169; both purified

| Binder | binding (Bcl-w (human)) | binding (Bfl-1 (human)) | binding [1] | binding [2] |
| --- | --- | --- | --- | --- |
| RLKSELEDNARRLRALADGVQKVHK [ApoL1-BH3 (I155A) peptide] | no binding (tested: up to 3 µM) | no binding (tested: up to 3 µM) |  |  |
| flag-tagged ApoL1-NTD (D61–T172) (domain or fragment, UniProt O14791 61-172) DPESSIFIEDAIKYFKEKVSTQNLLLLLTDNEAWNGFVAAAELPRNEADELRKALDNLARQMIMKDKNWHDKGQQYRNWFLKEFPRLKSELEDNIRRLRALADGVQKVHKGT | no binding (tested: up to 3 µM) | no binding (tested: up to 3 µM) | no binding |  |
| full-length ApoL1 with N-terminal flag-tag (protein, UniProt O14791-1 28-398) EEAGARVQQNVPSGTDTGDPQSKPLGDWAAGTMDPESSIFIEDAIKYFKEKVSTQNLLLLLTDNEAWNGFVAAAELPRNEADELRKALDNLARQMIMKDKNWHDKGQQYRNWFLKEFPRLKSELEDNIRRLRALADGVQKVHKGTTIANVVSGSLSISSGILTLVGMGLAPFTEGGSLVLLEPGMELGITAALTGITSSTMDYGKKWWTQAQAHDLVIKSLDKLKEVREFLGENISNFLSLAGNTYQLTRGIGKDIRALRRARANLQSVPHASASRPRVTEPISAESGEQVERVNEPSILEMSRGVKLTDVAPVSFFLVLDVVYLVYESKHLHEGAKSETAEELKKVAQELEEKLNILNNNYKILQADQEL | no binding (tested: up to 3 µM) | no binding (tested: up to 3 µM) |  |  |
| RLKSELEDNIRRLRALADGVQKVHK [ApoL1-BH3 peptide (25-mer, residues 146-170)] | no binding (tested: up to 3 µM) | no binding (tested: up to 3 µM) |  |  |
| RLKRELEDHIRKLRALAEEVEQVHR [ApoL2-BH3 peptide (25-mer, residues 87-111)] | no binding (tested: up to 3 µM) | no binding (tested: up to 3 µM) |  |  |
| flag-tagged ApoL2-NTD (N2-T113) (domain or fragment, UniProt Q9BQE5 2-113) NPESSIFIEDYLKYFQDQVSRENLLQLLTDDEAWNGFVAAAELPRDEADELRKALNKLASHMVMKDKNRHDKDQQHRQWFLKEFPRLKRELEDHIRKLRALAEEVEQVHRGT | no binding (tested: up to 3 µM) | no binding (tested: up to 3 µM) |  |  |
| ApoL1-NTD cleaved between L88 and T89 during crystallization (protomer in the Fab7D6:ApoL1-NTD crystal) (domain or fragment, UniProt O14791 89-172) TDNEAWNGFVAAAELPRNEADELRKALDNLARQMIMKDKNWHDKGQQYRNWFLKEFPRLKSELEDNIRRLRALADGVQKVHKGT |  |  |  | no binding |
